# Patent publication US20200299408A1
# Changes are numbered by the printed parent chain. These are yes or no findings as the source states them, for the method shown. A result given as binding can be weak or reduced; the word gives no strength.
# B1: 72H6 (antibody, IgG2a, V domains shown)
# VH: EVQLQQSGPELVKPGASVKISCKASGYSFTSYYIHWVKQRPGQGLEWIGWIFPGSDNTKYNEKFKGKATLTADTSSSTAYMQLSSLTSEDSAVYFCARNGNYAMDYWGQGTSVTVSS
# VL: EIVLSQSPSSLAVSAGEKVTMSCKSSQSLLNSRTRKNYLAWYQQKPGQSPKLLIYWASTRESGVPDRFTGSGSGTDFTLTISSVQAEDLAVYYCKQSYTLRTFGGGTKLEIK
# B2: 30A1 (antibody, IgG1, V domains shown)
# VH: QVQLKESGPGLVAPSQSLSITCTVSGFSLTNYAIHWVRQPPGKGLDWLGVIWAGGNTKYNSALMSRLSFSKDNSKSQVFLEINSLQTDDTAMYYCAREDSSGYVALDYWGQGTSVTVSS
# VL: B1 VL with E1N, L4M, S5T, N31S, S32G, T99Y, R101L, G105A, I111L
# B3: 71H7 (antibody, IgG1, V domains shown)
# VH: QIQLVQSGPELKKPGETVKISCKASGYTFTNYGMNWVKQAPGKGLKWMGWINTNTGKPTYAEDFKGRFAFSLETSASTAYLQINNLKNEDTATYFCARRGDYRYAWFTYWGQGTLVTVSA
# VL: QAVVTQESALTTSPGGTVILTCRSSTGAVTTSNYANWVQEKPDHLFTGLIGGTSNRAPGVPVRFSGSLIGDKAALTITGAQTEDDAMYFCALWYSTHFVFGGGTKVTV
# B4: 13A3 (antibody, IgG2b, V domains shown)
# VH: EVQLQQSGPELVKPGASVRISCKASGYTFTSYYIHWMKQRPGQGLEWIGWIYPGNVNTKYNEKFKGKATLTADNSSSTANMQLSSLTSEDSAVYFCARNHDYYFDYWGQGTTLTVSS
# VL: B1 VL with E1D, S5T, T99I
# B5: 38E4 (antibody, IgG3, V domains shown)
# VH: QVQLQQSGPELVKPGASVTISCTASGFTFTSYYIHWVRQRPGQGLEWIGWIYPENDNTKYNEKFKDKATLTADTSSSTAYMQLSSLTSEDSAVYYCARDGYSRYYFDYWGQGTTLTVSS
# VL: B1 VL with E1D, L4M, S5T, S10F, K45R, A57T, E61K, V91I, Y98F, T99I
# B6: 40G5 (antibody, V domains shown)
# VH: QVQLQQSGPELVKPGTSVKMSCKASGYTFTNYYIHWVRQRPGQGLEWIGWIYPGDVSTKYNEKFKGKTTLTADKSSSTAYMLLSGLTSEDSAIYFCARDGYSFYYFDYWGQGTTLTVSS
# VL: B1 VL with E1D, S5T, A40T, E61D, T69S, K95T
# B7: 19B1 (antibody, IgG2b, V domains shown)
# VH: B4 VH
# VL: B1 VL with E1G, L4M, S5T, T99I
# B8: 21B2 (antibody, IgG3, V domains shown)
# VH: QVQLQQSGPELVKPGASVRISCKASGYTFTSDYIHWMRQRPGQGLEWIGWIYFGNVNTKYNEKFKGKAILTADKFSSTAYMQLSSLTSEDSAVYFCARDGGYYFDYWGQGTTLTVSS
# VL: B1 VL with E1D, L4M, S5T, Y98F, G105Q, L109V
# B9: 125A1 (antibody, IgG3, V domains shown)
# VH: QVQLQQSGPELVKPGASVKMSCKASGYTFTSHYLHWVKQSPGQGLEWIVWINPGDGNVKYNEKFKDKTTVTADRSSTTVHMFLSSLTSEDSAIYFCARDGAYYFDYWGQGTTLTVSS
# VL: B1 VL with E1D, L4M, S5T, K18T, S22N, S83T, G105Q, L109V
# Target: cyno CD3 on cyno PBMCs (cynomolgus monkey)
# Assay: FACS on cyno PBMCs
row,Binder,binding
1,B1,binds
2,B2,binds
3,B3,binds
4,B4,binds
5,B5,binds
6,B6,binds
7,B7,binds
8,B8,binds
9,B9,binds
